The target in test [1] is HA-C/EBPβ WT (CCAAT/enhancer binding protein β, wild type) (UniProt P28033). Kind of test: co-IP.
Test [2] deals with HA-C/EBPβ K133R (UniProt P28033). Kind of test: co-IP.

By UniProt entry, the sequences of proteins in these tests, tags left out. Where a name states a change or a piece, a line headed by the entry shows the natural chain unless it says otherwise.
UniProt P28033, whole entry: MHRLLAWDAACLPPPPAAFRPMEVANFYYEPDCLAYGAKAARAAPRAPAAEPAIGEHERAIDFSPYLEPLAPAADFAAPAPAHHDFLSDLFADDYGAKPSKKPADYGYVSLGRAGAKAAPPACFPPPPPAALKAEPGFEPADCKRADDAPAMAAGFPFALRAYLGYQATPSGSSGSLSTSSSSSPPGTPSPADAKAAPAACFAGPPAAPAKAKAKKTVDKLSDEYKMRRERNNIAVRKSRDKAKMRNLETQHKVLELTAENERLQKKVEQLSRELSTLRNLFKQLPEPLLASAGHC
UniProt Q9UER7, whole entry: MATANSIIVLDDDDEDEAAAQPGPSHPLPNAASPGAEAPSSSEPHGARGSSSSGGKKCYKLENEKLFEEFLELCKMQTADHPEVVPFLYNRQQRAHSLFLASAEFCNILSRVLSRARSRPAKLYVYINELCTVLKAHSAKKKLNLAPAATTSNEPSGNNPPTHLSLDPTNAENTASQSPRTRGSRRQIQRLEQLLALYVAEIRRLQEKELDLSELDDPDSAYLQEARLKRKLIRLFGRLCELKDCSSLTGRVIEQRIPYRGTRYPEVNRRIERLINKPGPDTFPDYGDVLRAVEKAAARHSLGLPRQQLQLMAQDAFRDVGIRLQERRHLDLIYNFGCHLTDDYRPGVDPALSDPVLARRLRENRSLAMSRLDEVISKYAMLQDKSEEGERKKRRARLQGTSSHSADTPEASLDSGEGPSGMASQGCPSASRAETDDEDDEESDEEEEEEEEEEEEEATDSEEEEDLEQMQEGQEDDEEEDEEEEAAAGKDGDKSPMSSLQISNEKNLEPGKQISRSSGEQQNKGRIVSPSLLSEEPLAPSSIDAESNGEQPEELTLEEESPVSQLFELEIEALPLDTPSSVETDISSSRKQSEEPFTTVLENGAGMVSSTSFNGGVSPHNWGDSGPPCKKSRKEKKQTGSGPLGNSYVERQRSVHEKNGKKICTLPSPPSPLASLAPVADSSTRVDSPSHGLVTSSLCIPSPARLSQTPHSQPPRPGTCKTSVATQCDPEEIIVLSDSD

These are yes or no findings as the source states them, for the method shown. Binding seen in cells or lysates may run through a third protein. Some results given as binding are weak or reduced against the parent protein; the word gives no strength.

For “FLAG-DAXX (death domain-associated protein) (from UniProt Q9UER7 1-740)”, the binding result in test [1] and in test [2] was “binds” in each case.
